Source: the supplement of paper PMC11006884
This list holds what a sample rich in targets with a hit left over. Single values of this set are uncertain. The list shows a part of the results, in another mix than the full data.

Protein sequences, listed by entry. Tags and fused reporters are not part of them. Lines headed by an entry give the natural chain unless they say otherwise; changes in a name come on top.
UniProt Q9Y5B8, whole entry: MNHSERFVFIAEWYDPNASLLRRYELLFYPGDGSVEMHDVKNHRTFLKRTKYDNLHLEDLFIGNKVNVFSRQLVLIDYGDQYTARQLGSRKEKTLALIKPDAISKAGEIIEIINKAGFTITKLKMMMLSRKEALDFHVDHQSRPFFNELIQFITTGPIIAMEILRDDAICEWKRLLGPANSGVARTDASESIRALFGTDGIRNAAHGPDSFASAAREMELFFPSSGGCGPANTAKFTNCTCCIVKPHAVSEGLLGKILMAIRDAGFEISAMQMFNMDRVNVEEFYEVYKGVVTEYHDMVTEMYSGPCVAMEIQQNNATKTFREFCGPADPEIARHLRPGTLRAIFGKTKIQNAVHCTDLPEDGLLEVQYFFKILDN
UniProt Q9Y4P8: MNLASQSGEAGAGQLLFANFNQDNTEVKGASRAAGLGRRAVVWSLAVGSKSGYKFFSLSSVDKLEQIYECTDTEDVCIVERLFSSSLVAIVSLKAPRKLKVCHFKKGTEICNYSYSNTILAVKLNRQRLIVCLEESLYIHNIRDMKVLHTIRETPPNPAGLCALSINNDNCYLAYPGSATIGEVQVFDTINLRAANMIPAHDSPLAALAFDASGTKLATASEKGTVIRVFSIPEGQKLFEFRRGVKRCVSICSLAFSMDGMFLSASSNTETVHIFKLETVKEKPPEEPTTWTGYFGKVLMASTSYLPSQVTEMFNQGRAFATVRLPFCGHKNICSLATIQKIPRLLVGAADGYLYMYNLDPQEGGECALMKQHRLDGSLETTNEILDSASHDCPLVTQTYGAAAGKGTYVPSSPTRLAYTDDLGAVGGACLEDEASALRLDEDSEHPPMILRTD
UniProt Q9Y6B6: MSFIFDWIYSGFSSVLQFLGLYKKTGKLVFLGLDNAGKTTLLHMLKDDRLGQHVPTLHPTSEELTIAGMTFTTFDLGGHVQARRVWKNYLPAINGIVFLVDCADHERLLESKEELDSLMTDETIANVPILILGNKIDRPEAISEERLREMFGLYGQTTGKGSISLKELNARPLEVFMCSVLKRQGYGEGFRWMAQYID
UniProt Q9Y5K5, whole entry: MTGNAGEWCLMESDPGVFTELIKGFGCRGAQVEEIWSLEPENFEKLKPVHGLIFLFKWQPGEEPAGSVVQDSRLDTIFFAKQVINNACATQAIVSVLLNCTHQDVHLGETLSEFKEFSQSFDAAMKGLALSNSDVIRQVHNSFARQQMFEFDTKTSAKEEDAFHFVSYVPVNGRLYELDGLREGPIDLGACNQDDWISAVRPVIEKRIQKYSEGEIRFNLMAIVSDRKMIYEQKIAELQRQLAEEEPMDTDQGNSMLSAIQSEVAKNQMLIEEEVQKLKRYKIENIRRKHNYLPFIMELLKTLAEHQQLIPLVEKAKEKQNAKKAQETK
UniProt Q9Y5P6: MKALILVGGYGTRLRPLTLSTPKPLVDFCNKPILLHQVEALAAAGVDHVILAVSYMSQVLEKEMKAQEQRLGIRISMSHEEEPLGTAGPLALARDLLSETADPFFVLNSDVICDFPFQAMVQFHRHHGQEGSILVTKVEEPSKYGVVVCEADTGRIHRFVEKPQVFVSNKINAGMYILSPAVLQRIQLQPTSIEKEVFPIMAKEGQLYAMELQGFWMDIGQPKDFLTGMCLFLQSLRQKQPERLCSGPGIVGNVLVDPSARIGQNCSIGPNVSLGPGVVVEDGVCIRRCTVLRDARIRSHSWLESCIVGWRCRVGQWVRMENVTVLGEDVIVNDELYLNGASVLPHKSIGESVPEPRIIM
UniProt Q9Y5R8, whole entry: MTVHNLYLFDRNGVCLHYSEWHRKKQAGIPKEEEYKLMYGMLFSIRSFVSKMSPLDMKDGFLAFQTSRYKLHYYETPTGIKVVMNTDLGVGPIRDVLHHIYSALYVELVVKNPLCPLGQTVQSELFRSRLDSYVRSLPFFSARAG
UniProt Q9Y5Y2: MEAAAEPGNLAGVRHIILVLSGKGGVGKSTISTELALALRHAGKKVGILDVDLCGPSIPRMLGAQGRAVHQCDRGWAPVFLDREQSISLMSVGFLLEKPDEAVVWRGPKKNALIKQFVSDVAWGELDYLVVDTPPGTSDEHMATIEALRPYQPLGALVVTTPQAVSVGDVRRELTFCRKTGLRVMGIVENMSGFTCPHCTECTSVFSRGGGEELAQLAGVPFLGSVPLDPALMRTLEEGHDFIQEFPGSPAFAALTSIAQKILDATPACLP
UniProt Q9Y4C1: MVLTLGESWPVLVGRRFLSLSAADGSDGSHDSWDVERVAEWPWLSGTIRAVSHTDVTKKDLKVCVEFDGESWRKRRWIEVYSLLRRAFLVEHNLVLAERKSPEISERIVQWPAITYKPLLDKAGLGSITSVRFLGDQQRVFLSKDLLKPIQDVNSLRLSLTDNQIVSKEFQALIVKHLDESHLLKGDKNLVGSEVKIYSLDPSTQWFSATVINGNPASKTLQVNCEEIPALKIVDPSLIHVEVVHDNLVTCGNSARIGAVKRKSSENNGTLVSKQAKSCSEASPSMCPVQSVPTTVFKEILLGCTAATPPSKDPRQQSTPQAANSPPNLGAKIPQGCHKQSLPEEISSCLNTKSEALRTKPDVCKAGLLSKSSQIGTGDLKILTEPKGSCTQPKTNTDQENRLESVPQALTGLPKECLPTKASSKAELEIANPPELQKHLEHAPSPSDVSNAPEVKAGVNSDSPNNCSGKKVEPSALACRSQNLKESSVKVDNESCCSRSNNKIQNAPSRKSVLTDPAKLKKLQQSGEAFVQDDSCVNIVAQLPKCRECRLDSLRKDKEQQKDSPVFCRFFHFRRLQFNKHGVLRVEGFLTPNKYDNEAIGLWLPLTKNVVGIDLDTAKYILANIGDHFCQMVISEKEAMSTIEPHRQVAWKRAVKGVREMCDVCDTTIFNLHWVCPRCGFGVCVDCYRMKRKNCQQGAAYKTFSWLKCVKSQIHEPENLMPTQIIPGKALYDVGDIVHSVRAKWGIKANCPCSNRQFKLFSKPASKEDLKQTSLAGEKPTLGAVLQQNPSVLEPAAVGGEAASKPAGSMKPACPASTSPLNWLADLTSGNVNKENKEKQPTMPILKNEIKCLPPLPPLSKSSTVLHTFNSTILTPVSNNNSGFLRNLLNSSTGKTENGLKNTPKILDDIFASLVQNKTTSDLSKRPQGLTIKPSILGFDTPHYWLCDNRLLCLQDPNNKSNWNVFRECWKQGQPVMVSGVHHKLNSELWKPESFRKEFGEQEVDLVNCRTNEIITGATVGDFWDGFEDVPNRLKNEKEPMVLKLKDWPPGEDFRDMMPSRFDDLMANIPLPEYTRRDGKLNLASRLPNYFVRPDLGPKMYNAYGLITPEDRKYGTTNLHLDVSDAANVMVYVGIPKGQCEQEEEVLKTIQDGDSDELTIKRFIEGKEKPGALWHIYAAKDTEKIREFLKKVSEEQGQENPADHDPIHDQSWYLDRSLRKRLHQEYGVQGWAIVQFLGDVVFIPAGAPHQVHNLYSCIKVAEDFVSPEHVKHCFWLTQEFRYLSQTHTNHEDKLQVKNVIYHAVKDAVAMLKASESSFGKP
UniProt Q9Y6X4: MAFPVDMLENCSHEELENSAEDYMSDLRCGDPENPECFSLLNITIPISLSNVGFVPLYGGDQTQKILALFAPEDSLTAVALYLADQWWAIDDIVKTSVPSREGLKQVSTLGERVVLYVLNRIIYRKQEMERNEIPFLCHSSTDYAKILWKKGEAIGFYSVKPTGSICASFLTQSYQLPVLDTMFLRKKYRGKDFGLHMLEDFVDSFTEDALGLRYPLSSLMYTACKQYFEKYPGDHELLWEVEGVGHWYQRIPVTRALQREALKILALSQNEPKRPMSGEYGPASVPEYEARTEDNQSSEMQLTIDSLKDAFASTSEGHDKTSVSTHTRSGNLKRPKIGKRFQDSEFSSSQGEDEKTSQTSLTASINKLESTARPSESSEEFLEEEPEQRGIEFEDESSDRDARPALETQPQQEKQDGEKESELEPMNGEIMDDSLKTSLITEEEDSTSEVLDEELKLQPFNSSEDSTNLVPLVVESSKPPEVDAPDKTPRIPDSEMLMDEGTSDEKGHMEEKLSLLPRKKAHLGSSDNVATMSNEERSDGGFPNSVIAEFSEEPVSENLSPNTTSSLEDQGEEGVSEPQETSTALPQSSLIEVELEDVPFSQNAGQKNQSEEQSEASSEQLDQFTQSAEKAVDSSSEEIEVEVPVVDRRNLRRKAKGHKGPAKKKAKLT
UniProt Q9Y678: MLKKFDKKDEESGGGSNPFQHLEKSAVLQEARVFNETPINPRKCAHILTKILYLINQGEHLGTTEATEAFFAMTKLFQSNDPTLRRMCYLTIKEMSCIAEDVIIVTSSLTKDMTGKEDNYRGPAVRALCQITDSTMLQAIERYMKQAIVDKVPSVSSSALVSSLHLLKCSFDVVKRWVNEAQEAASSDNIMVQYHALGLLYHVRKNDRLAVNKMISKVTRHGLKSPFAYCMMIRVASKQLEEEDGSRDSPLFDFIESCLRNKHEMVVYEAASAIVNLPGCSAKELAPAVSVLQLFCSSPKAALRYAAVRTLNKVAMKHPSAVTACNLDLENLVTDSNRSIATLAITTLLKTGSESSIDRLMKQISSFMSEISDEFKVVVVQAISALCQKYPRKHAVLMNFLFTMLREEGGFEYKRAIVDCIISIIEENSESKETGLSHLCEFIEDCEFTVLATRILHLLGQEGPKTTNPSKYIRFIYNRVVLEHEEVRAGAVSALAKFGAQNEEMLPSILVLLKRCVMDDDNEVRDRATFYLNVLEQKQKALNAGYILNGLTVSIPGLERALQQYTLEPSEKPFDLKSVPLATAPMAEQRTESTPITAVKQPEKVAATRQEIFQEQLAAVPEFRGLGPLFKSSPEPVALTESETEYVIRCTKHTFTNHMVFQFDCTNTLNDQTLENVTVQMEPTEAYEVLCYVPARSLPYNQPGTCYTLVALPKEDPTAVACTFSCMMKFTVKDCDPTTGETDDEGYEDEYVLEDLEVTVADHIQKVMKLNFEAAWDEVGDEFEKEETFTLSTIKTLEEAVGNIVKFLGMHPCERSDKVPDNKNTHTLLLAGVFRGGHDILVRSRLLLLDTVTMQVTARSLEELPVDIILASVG
UniProt Q9Y6I9: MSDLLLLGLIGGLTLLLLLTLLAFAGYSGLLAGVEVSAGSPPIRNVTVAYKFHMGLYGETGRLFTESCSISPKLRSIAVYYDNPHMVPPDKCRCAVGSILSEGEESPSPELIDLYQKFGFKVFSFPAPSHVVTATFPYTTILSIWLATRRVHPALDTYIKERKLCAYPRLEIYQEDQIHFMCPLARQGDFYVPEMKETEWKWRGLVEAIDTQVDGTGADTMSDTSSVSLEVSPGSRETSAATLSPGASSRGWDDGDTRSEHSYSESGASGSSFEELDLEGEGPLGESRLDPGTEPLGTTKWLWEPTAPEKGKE
UniProt Q9Y613: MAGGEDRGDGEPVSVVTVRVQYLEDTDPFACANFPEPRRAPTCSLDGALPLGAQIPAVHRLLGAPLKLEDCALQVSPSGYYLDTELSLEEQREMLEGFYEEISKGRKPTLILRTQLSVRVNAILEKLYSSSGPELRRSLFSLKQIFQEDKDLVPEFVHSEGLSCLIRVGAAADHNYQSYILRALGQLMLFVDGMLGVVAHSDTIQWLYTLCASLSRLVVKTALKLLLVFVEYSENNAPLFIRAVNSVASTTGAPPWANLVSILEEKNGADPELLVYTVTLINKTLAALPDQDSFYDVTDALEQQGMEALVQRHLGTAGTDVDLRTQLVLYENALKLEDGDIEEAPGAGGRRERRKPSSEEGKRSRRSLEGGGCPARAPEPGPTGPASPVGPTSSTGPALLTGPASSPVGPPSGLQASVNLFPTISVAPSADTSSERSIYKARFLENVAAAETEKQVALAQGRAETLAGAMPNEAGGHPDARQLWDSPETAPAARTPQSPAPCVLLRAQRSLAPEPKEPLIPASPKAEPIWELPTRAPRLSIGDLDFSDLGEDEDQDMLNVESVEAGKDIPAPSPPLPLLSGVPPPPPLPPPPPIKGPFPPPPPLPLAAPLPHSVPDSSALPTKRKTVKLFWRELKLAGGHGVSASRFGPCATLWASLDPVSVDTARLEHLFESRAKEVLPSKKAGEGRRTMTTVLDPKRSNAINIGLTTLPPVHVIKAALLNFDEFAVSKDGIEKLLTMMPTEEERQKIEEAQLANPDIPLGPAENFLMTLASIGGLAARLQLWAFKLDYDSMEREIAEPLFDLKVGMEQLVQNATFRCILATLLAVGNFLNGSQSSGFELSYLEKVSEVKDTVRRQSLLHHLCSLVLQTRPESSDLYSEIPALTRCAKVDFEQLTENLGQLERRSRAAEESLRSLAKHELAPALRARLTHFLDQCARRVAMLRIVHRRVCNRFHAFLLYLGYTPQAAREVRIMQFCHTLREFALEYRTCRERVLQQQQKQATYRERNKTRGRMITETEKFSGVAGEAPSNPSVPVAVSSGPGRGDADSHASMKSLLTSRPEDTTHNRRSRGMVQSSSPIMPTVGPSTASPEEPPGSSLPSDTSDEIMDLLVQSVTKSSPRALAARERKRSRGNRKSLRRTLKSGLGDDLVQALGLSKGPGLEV

Compound: COC(=O)/C=C/c1ccccc1 [methyl cinnamate]
Assay: log2 ratio of iodoacetamide-alkyne labeling of the cysteine site, DMSO over compound (competition); higher = stronger covalent engagement of the cysteine by the compound, active = 1 or more
Settings: 500 µM; treatment time 1 h; system: HEK293T cell lysate
How it was run: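 Three replicates, each with duplicate channels, were prepared from HEK293T lysate (2 mg/mL) treated with vehicle or electrophile at 500 µM for 1 h at ambient temperature. Iodoacetamide alkyne was then applied for 1 h, and samples were clicked to sCIP-TMT reagents, pooled, trypsin-digested overnight at 37 °C, enriched on streptavidin, acid-eluted and analysed on Orbitrap Eclipse LC-MS/MS with FAIMS, with FragPipe quantification. The log2 competition ratio per cysteine is the mean control-channel divided by the mean compound-channel reporter intensity. Cysteines quantified in only one replicate were left out.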

log2 ratio of iodoacetamide-alkyne labeling, inactive:
ZHX2 C738 (UniProt Q9Y6X8) 0.22
NME7 C228 (UniProt Q9Y5B8) -0.0844
WIPI2 C393 (UniProt Q9Y4P8) 0.194
SAR1B C178 (UniProt Q9Y6B6) 0.204
LAS1L C140 (UniProt Q9Y4W2) 0.332
CD2AP C540 (UniProt Q9Y5K6) 0.46
UCHL5 C9 (UniProt Q9Y5K5) 0.0922
ARFGEF2 C1450 (UniProt Q9Y6D5) 0.231
USP15 C381 (UniProt Q9Y4E8) -0.0402
GMPPB C245 (UniProt Q9Y5P6) 0.321
TRAPPC1 C115 (UniProt Q9Y5R8) 0.543
NUBP2 C72 (UniProt Q9Y5Y2) 0.193
NUBP2 C269 (UniProt Q9Y5Y2) -0.103
UniProt Q9Y6E0_C415 -0.0435
LAS1L C504 (UniProt Q9Y4W2) -0.0743
TACC3 C206 (UniProt Q9Y6A5) -0.119
UniProt Q9Y4C1_C947 0.154
FAM169A C138 (UniProt Q9Y6X4) 0.18
FAM169A C11 (UniProt Q9Y6X4) 0.281
UniProt Q9Y678_C706 -0.0308
TEX264 C165 (UniProt Q9Y6I9) 0.311
FHOD1 C650 (UniProt Q9Y613) 0.232

Two records drawn at random from those above, as already listed:
log2 ratio of iodoacetamide-alkyne labeling, inactive:
UCHL5 C9 (UniProt Q9Y5K5) 0.0922
SAR1B C178 (UniProt Q9Y6B6) 0.204
